Measurements taken from PMC6620385.
No constants are given. Whether binding was seen depends on the method and setting. Binding seen in cells or lysates may run through a third protein. Some results given as binding are weak or reduced against the parent protein; the word gives no strength. Where a sequence is shown, tags or fusion partners need not be part of it.

The chains behind the UniProt entries cited, without tags or fusion partners.
UniProt P56915: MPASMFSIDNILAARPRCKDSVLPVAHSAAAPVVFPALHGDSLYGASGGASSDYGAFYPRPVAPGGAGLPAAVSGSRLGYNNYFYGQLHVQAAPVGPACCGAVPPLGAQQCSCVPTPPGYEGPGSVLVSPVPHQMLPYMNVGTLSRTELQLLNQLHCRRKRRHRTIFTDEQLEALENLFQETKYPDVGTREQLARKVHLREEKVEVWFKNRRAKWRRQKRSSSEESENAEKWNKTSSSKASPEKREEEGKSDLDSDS

Target: T1, Myc-tagged ubiquitin carboxyl-terminal hydrolase 21 (Myc-USP21) (human (cDNA from HEK 293T cells)) (UniProt Q9UK80)
T1 sequence: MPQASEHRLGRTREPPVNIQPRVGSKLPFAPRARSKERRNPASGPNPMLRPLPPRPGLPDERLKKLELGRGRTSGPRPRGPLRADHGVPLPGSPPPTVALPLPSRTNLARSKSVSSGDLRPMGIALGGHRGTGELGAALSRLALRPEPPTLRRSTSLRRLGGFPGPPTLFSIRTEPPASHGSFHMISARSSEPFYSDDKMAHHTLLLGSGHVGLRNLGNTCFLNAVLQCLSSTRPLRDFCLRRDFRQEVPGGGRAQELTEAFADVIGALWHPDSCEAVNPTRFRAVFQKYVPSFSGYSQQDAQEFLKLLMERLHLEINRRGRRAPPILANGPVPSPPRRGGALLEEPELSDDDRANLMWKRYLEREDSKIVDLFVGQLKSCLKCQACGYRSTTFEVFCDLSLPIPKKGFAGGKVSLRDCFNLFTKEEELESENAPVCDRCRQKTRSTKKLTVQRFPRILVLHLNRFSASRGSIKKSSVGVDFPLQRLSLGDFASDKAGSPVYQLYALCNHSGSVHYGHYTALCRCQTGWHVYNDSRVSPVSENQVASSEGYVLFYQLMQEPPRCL
Test: co-IP; HEK 293T cells co-transfected with Flag-GSC and Myc-USP21; lysed after 48 h in HEPES lysis buffer (20 mM HEPES pH 7.2, 50 mM NaCl, 1 mM NaF, 0.5% Triton X-100); anti-Myc (and anti-Flag) immunoprecipitation at 4°C, Western blot

- binding: binds
Substance: Flag epitope-tagged Goosecoid (Flag-GSC) (from UniProt P56915 1-257)
